The test is described as follows: qHTS Assay for Lipid Storage Modulators in Drosophila S3 Cells.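 For cell number change: cells counted by Cell Tracker Red CMTPX staining in the red channel.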 The following applies: BODIPY lipid droplet fluorescence, 18-24 h; for cell number change: measured here: cell count max response, cells fed with added oleic acid. The essentials: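 Drosophila S3 cells loaded with oleic acid (400 uM, as added) and compounds at several concentrations; lipid droplets imaged by 488-nm laser-scanning cytometry, 500–530 nm intensity and object ratio to cell channel. Percent activity normalized to 20 uM Triacsin C.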
(qHTS replaces the single test concentration by a dilution series.)

Where [1] appears, read: measured here: cell number channel AC50, cells fed with added oleic acid.
Where [2] appears, read: measured here: lipid fluorescence (Fed channel) AC50, cells fed with added oleic acid.

The other results are listed elsewhere or left out. The main result of the screen is listed elsewhere. These columns were measured beside it and carry no call. Compounds called inactive in the main read-out are mostly missing here. The note in brackets gives the kind of curve behind each potency; many fits are weak.

As usually defined, the AC50 is the concentration at which the activity in the assay is half-maximal. A low value points to activity at low concentration.

As to `CCOc1ccc(C(NC(C)=O)c2ccc(OC)c(OC)c2)cc1` (centres undefined), the cell number change was -50.3%.
On to `COc1ccc(/C(O)=C2\C(=O)C(=O)N(CCN(C)C)C2c2cccc(OC)c2OC)cc1Cl` (centres undefined), for which the cell number change is 9.3%.
On the same count and under the same terms, then `O=C(Nc1ccc2ccccc2c1)c1ccc(Br)o1`, with -4.34%.
Regarding `Cc1cc(SCC(=O)Nc2ccccc2)nc(C)n1`, the cell number change was 30%. Further, the half-maximal activity concentration (AC50) under setting [1] was 0.13 µM [rising, full curve, poor fit].
For the compound `Cc1ccc2nc(SCC(=O)NCc3ccco3)c(C)cc2c1`, the cell number change is 30.2%.
On to `COc1ccc(CN2CC(C(=O)NCc3ccccn3)CC2=O)cc1` (centres undefined), for which the half-maximal activity concentration (AC50) under setting [2] was 0.517 µM [falling, partial curve].
In the case of `C=CCn1c(SCC(=O)Nc2c(C)nn(Cc3ccccc3)c2C)nnc1C(O)c1ccccc1` (centres undefined), the cell number change was determined as 152%. Under setting [1], the half-maximal activity concentration (AC50) was 18.4 µM [rising, single point]. In addition, the AC50 under setting [2] is 18.4 µM [rising, single point].
In the case of `Oc1cccc(Nc2nc(N3CCOCC3)nc(N3CCOCC3)n2)c1`, the cell number change was -13.3%. Under setting [2], the AC50 is 6.51 µM [falling, partial curve, poor fit].
Turning to `Cc1cc(C)c2sc(NC(=O)c3ccc([N+](=O)[O-])o3)nc2c1`, the cell number change was -7.2%. Further, the AC50 under setting [2] was 0.731 µM [falling, full curve, poor fit].
Take `CC1CC(C)CN(CCCNC(=O)c2cc3c(s2)-c2ccccc2OC3)C1` (centres undefined): the cell number change turned out to be 3.96%.
As to `Fc1ccc(NC(=S)NC23CN4CN(CN(C4)C2)C3)cc1`, the cell number change is -18.5%. Moreover, the concentration at half-maximal activity (AC50) under setting [2] was 0.517 µM [falling, full curve, poor fit].
As to `Cc1ccc(N(CN2C(=O)NC(C)(C)C2=O)CN2C(=O)NC(C)(C)C2=O)cc1`, the cell number change is -6.57%. Besides, under setting [2], the half-maximal activity concentration (AC50) is 2.91 µM [falling, full curve].
Take `Cc1ccc(C(=O)NCCCNCCCN(C)C)cn1`: the cell number change is -34.9%. Under setting [1], the AC50 is 2.31 µM [falling, full curve]. Also, under setting [2], the half-maximal activity concentration (AC50) was 0.731 µM [falling, full curve].
In the case of `CC1CC(C)(C)NC(=S)N1CC(=O)N1CCN(Cc2ccc3c(c2)OCO3)CC1` (centres undefined), under setting [2], the AC50 was 6.51 µM [rising, partial curve].
`O=C(NCCc1ccccc1)c1ccc(Cl)c(S(=O)(=O)N2CCCC2)c1`: the cell number change is -23.2%. The AC50 under setting [2] was 29.1 µM [falling, partial curve, poor fit].
Regarding `CCOc1ccc(/C=C/C2=NNC(=O)CC2)cc1`, the cell number change is -7.54%.
With `COc1cc(C(=O)O/N=C(\N)c2ccccn2)cc(OC)c1OC`, the cell number change was -9.61%. The AC50 under setting [2] is 0.00461 µM [rising, full curve, poor fit].
On to `CCOCCCNC(=O)CN1CCN(Cc2ccccc2C)C1=O`, for which the cell number change is -7.35%. Also, the AC50 under setting [2] was 29.1 µM [falling, single point].
Take `O=C(Nc1cccc(C(F)(F)F)c1)C12CC3CC(CC(C3)C1)C2`: the cell number change is -27.3%. For the same compound, under setting [2], the AC50 was 18.4 µM [falling, single point].
`CC(=O)c1c(C)[nH]c(C(=O)N2CCN(S(=O)(=O)c3ccc(F)c(F)c3)CC2)c1C`: the cell number change was -25.4%. Moreover, under setting [2], the AC50 was 0.82 µM [falling, full curve, poor fit].
As for `O=[N+]([O-])c1ccc(/C=N/NS(=O)(=O)c2ccc(Cl)cc2)o1`, the cell number change was found to be 87.5%. For the same compound, under setting [1], the AC50 was 18.4 µM [rising, partial curve, poor fit]. Besides, the AC50 under setting [2] is 2.06 µM [falling, partial curve, poor fit].
Take `CCOC(=O)CCNC(=O)CNC(=O)OCc1ccccc1`: the cell number change worked out at 20.4%. Besides, under setting [2], the half-maximal activity concentration (AC50) was 6.51 µM [falling, single point].
With `O=C(OCCCOC(=O)c1ccc(O)cc1)c1ccc(O)cc1`, the cell number change was -9.63%. Also, the concentration at half-maximal activity (AC50) under setting [2] was 29.1 µM [falling, single point].
For `O=Cc1cn(CCOc2ccccc2)c2ccccc12`, the cell number change is -24.5%.
With `Cn1c(CCNC(=O)OC(C)(C)C)n[nH]c1=S`, the cell number change amounted to 4.35%. Further, the AC50 under setting [2] was 0.0731 µM [falling, full curve, poor fit].
For the compound `CC(C)C1Cc2c(sc3ncnc(NN)c23)CO1` (centres undefined), the cell number change was determined as 20.7%. Also, the AC50 under setting [2] is 0.116 µM [rising, full curve, poor fit].
For the compound `CCOC(=O)Cn1c(-c2cccnc2Cl)nc2ccccc21`, the AC50 under setting [2] is 6.51 µM [falling, single point].
In the case of `Cc1ccc(NCc2nnc(SCC(=O)c3ccccc3)o2)c(C)c1`, the AC50 by setting is: under setting [1], 5.8 µM [rising, single point]; under setting [2], 5.17 µM [rising, single point].
As for `CCCCNC(=O)c1c[nH]c2ccc(S(=O)(=O)N3CCOCC3)cc2c1=O`, under setting [2], the half-maximal activity concentration (AC50) is 4.61 µM [rising, partial curve].
Consider `CCOc1cc(C(=O)NCCN2C(=O)S/C(=C\c3cccnc3)C2=O)cc(OCC)c1OCC`, for which the cell number change stood at 24.1%.
Consider `C#CCOCCOCCOCCNc1nc(N2CCN(C(=O)CCCCCCCCCCNC(=O)[C@H](CCC(=O)O)n3cc(CCCCCN)nn3)CC2)nc(N2CCN(C(=O)CCCCCCCCCCNC(=O)[C@@H]([C@H](C)O)n3cc(C)nn3)CC2)n1`, for which the cell number change was determined as 16%. In addition, the AC50 under setting [2] was 6.51 µM [falling, single point].
`COc1ccc(OC)c2[nH]c(=O)c(CCNC(=O)c3ccc(S(=O)(=O)N4CCCCC4)cc3)cc12`: the cell number change was -31.5%.
Same read-out and setting: then `COc1ccc(-n2nc3ccc(NS(C)(=O)=O)cc3n2)cc1Cl`, with 1.88%.
On to `CC(C)(C)C1CCc2c(C(=O)NNC(=O)/C=C/C(=O)O)csc2C1` (centres undefined), for which the cell number change came out at 31.4%. For the same compound, the AC50 under setting [1] was 8.2 µM [rising, partial curve]. Further, the AC50 under setting [2] is 0.731 µM [falling, full curve].
With `O=C(NC1CCCCC1)C(c1ccncc1)N(C(=O)c1csnn1)c1cccc(F)c1` (centres undefined), the cell number change was -12.8%.
With `COC(=O)N/N=C(\C)c1ccc2ccccc2c1OC(F)F`, the cell number change was -8.46%. In addition, the AC50 under setting [2] is 8.2 µM [rising, partial curve].
As to `O=C(CN1CCN(c2ccc(O)cc2)CC1)NC1CCCc2ccccc21` (centres undefined), the cell number change was -23.3%. In addition, the AC50 under setting [2] was 9.2 µM [rising, partial curve].
With `C/C(N)=C(/C#N)C(=O)COC(=O)COc1ccc(Cl)cc1`, the cell number change was -137%. For the same compound, under setting [1], the AC50 is 23.1 µM [falling, partial curve]. Moreover, under setting [2], the AC50 is 2.31 µM [falling, partial curve, poor fit].
Turning to `Nn1c(SCC(=O)Nc2ccc(F)cc2)nnc1-c1ccccn1`, the AC50 under setting [1] was 1.46 µM [falling, partial curve].
In the case of `Cc1nc2nc[nH]n2c(=O)c1NC(=O)c1c(-c2ccccc2Cl)noc1C`, the cell number change is -10.8%. For the same compound, under setting [2], the AC50 is 1.64 µM [falling, partial curve].
